The other results are listed elsewhere or left out.

The target in the assay is T1, OsSMF1 (Oryza sativa, UniProt Q6ZLB0 1-436).
T1 sequence: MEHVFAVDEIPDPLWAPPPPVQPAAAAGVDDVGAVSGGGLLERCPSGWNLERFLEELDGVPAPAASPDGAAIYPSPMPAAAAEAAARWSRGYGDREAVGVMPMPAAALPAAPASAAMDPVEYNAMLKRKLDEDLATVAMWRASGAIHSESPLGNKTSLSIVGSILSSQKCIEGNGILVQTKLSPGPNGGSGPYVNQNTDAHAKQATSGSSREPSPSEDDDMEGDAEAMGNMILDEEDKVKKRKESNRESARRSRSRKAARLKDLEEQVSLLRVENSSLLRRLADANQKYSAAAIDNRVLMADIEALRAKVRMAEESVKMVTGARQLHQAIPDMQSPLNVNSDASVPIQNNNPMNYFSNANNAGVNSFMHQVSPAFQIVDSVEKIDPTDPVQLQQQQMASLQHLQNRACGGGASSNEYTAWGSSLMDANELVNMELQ
Nature of the assay: protein-binding microarray (RPBM); PBS, 2% BSA, 51.3 ng/ul salmon testes DNA, 50 uM zinc acetate, 200 nM TF, 25 C, 1 h; high values mean tight binding. Conditions: protein: recombinant; tags: N-terminal polyhistidine and DsRed monomer fusion (pET32a); chain copies: 2; label: CyDye5-dUTP incorporated in the synthesized complementary strand; 3' TTTTT single-stranded linker to array surface; dsDNA, one strand shown. In short, it runs like this:
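An Axon 4000B scanner gave the binding signal as per-feature fluorescence intensity in arbitrary units. This followed washing of a custom Agilent array that had been incubated for 1 h at 25 °C with 200 nM protein in PBS, 2% BSA, salmon testes DNA and 50 µM zinc acetate. The proteins were transcription factors fused at the N-terminus to polyhistidine and DsRed, expressed in E. coli BL21-CodonPlus and purified on Ni–NTA.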
As for “TATGTAAGCAATGTCATATCATTATCTCCACATTATTTTCCGGAGTCACCTAGTGCAG”, the binding signal is 3500 fluorescence intensity (a.u.).
As for “GTGGTGAGGCACATCATCTCCTCCTCCGTCATCGCCTCCGCGGAGTCACCTAGTGCAG”, the figure is 4650 fluorescence intensity (a.u.); as for “CACCAAACCCCAACCCACCTCCAGGTCATCCACCCACATCCGGAGTCACCTAGTGCAG”, 3900 fluorescence intensity (a.u.); as for “CATATATGGACAGGCAACGGCATGTCGTGTTCGTACAAATCGGAGTCACCTAGTGCAG”, 3190 fluorescence intensity (a.u.).
As for “CTCTCTCTCTCTCTCTCTCTAGCTTCCACCTCCTGATCCACGGAGTCACCTAGTGCAG”, the figure is 3370 fluorescence intensity (a.u.); as for “GCACCGGATGTCGTCACATGGACTAGCCTTGTCTCTGGCTCGGAGTCACCTAGTGCAG”, 3910 fluorescence intensity (a.u.); as for “ACCGGCGTGTCGTCGACTCATGGCTTTTGACTGATTTTGGCGGAGTCACCTAGTGCAG”, 5480 fluorescence intensity (a.u.).
The value for “AGAGCACGAAGTCATGTGTTTTGCTCCACTCCACGTCGTCCGGAGTCACCTAGTGCAG” was 6760 fluorescence intensity (a.u.).
In the case of “CCAGGTCTTCTAGCACCAACATGGTAGGAGTAAACAAACACGGAGTCACCTAGTGCAG”, the binding signal was 4770 fluorescence intensity (a.u.).
As to “TGCTGTGCAGGTTGCTCACATGTCACCTTCCGCTGTCATTCGGAGTCACCTAGTGCAG”, the binding signal is 6090 fluorescence intensity (a.u.).
Consider “GCTGCCAAATTGCCAATGGAGGCGGCTAGCCGGTACCTAACGGAGTCACCTAGTGCAG”, for which the binding signal is 3900 fluorescence intensity (a.u.).
As for “TATATTTAATACTTCAAATACGTGTCCGTATATCCGATGTCGGAGTCACCTAGTGCAG”, the binding signal is 7090 fluorescence intensity (a.u.).
Take “CCTCACCACACGCGCCGTCTCCTCGATCACCACACGCGCACGGAGTCACCTAGTGCAG”: the binding signal is 21300 fluorescence intensity (a.u.).
As to “GATTTTGCGCGCCCGCATCGCACTCGCAGCAGCAGCGCCTCGGAGTCACCTAGTGCAG”, the binding signal is 3740 fluorescence intensity (a.u.).
As for “TCTGATTATGACTCGATTCAATTAGCAGCAACGACTAATGCGGAGTCACCTAGTGCAG”, the figure is 4290 fluorescence intensity (a.u.); as for “TCCAGAGAATTCGCATGCTGGCCGTGTACGTACGTGGCGCCGGAGTCACCTAGTGCAG”, 11100 fluorescence intensity (a.u.); as for “TTGGTTGACGTGGCGCCTACGTTGCTCATTTAACTCGGTCCGGAGTCACCTAGTGCAG”, 30700 fluorescence intensity (a.u.).
For “CCTACCATCACATTCAGAGTTTGCATCCAAAATCCAGATGCGGAGTCACCTAGTGCAG”, the binding signal is 28500 fluorescence intensity (a.u.).
The value for “GAATTGTCTGCAAATTTGCAGCATCCCGTCATTTCCAAATCGGAGTCACCTAGTGCAG” was 3250 fluorescence intensity (a.u.); that for “CCTCCTCCTTCTCCGGCCACGGCGGCCGGCATTAGAAGCACGGAGTCACCTAGTGCAG” was 3520 fluorescence intensity (a.u.); that for “AAGAGAAATATCTGGTTGCTCCAGCTTGGCATCGTTGACCCGGAGTCACCTAGTGCAG” was 3870 fluorescence intensity (a.u.).
The value for “CCCTGTTCGTCGCCCGCCATGCCAGGGCGTGACATCACGTCGGAGTCACCTAGTGCAG” was 4110 fluorescence intensity (a.u.).
The value for “CCTCCGTCTCATAAAATACCAACCTAGTACTGGATGTGATCGGAGTCACCTAGTGCAG” was 3810 fluorescence intensity (a.u.); that for “GGGCCCCACTAACTGACTAAGCAAGTCAACGCTCTTTAAACGGAGTCACCTAGTGCAG” was 3470 fluorescence intensity (a.u.); that for “TGCAGTAGTGCTGACGTTCTTGTGTTAATGTGTTGGTTTTCGGAGTCACCTAGTGCAG” was 4430 fluorescence intensity (a.u.).
On to “TTGCAAGCAGGGCTTTTCTGCCTACAGAGCTACTACGTGTCGGAGTCACCTAGTGCAG”, for which the binding signal was 3780 fluorescence intensity (a.u.).
On to “CTGGAGTCTGCCTGAAGTAATCTCATGATCTCATCCCCTCCGGAGTCACCTAGTGCAG”, for which the binding signal is 4710 fluorescence intensity (a.u.).
As for “TGTGCAGCACGCAGAGACAGAGGGCACGTGCCTTGGCTGCCGGAGTCACCTAGTGCAG”, the figure is 3280 fluorescence intensity (a.u.).
The value for “CGACGATGTCGACACCCGGCCCCACGTCGACGCCGTCTTCCGGAGTCACCTAGTGCAG” was 6120 fluorescence intensity (a.u.); that for “GAGTCTTGATAAGTGCACCCATCTCATCTCATCTCCTACTCGGAGTCACCTAGTGCAG” was 3410 fluorescence intensity (a.u.).
As for “AATTTGGAACTTTCATAGTGATGTCATCCATGGCTTTAACCGGAGTCACCTAGTGCAG”, the figure is 9690 fluorescence intensity (a.u.); as for “TCACCATCCTCTTCATCGTCAGCAATCTTGACAACCGTACCGGAGTCACCTAGTGCAG”, 5860 fluorescence intensity (a.u.); as for “TGCTGTCCCGCCGCTGGCGCCACGTCTGGAAATGGGTGTCCGGAGTCACCTAGTGCAG”, 5840 fluorescence intensity (a.u.).
In the case of “CACCATGGCCATAAGACGATGAGCTGAGAGAGAGAGAGAGCGGAGTCACCTAGTGCAG”, the binding signal is 27900 fluorescence intensity (a.u.).
The value for “AAATCAGGAGCCTCTGCCATTGGTTTGTGAAGCTACATCGCGGAGTCACCTAGTGCAG” was 65500 fluorescence intensity (a.u.).
Take “AACCAGTTATAACAAATAGAAAATTATTTGCTTAATGTGCCGGAGTCACCTAGTGCAG”: the binding signal was 14700 fluorescence intensity (a.u.).
Consider “TTCTGCTGGATGCAAAGGAGAACGTGTAGACATGTACTACCGGAGTCACCTAGTGCAG”, for which the binding signal is 3270 fluorescence intensity (a.u.).
The value for “ATTACATAAGTTAGCAAGCAAGCATGTGCCAAGTCATTCCCGGAGTCACCTAGTGCAG” was 5140 fluorescence intensity (a.u.); that for “GCCCACGCAGCAGCAGCTACCGTGGCGGCTGCGACCAGCGCGGAGTCACCTAGTGCAG” was 3250 fluorescence intensity (a.u.).
“AAGGAGGAGTTGGCCCCTCCAATCCTACGGGCCAAATCATCGGAGTCACCTAGTGCAG”: the binding signal was 3930 fluorescence intensity (a.u.).
As for “CATACATGTAGCATGAAATTAGGTGACGTTTCACTTGGATCGGAGTCACCTAGTGCAG”, the figure is 4140 fluorescence intensity (a.u.).
As for “AACGCCTCACCTTAGACGTGGCAACCTTAGTCACTCAAACCGGAGTCACCTAGTGCAG”, the figure is 4870 fluorescence intensity (a.u.).

Values taken from PMC7819943, “Rice protein-binding microarrays: a tool to detect cis-acting elements near promoter regions in rice”.
